Reference: article PMC5282554
The exact form of at least one protein or probe is not confirmed. A weaker result is weaker than the reference pair of the same experiment. At least one verdict rests on a figure or table, not on a statement of the authors.

The chains behind the UniProt entries cited, without tags or fusion partners. Residues count along the entry.
UniProt P51608, 78-162: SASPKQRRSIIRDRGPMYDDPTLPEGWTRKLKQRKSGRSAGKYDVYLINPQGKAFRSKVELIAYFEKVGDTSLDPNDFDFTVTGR

Target: MeCP2 MBD (UniProt P51608)
Test: ITC
Details: 150 mM NaCl, ~1000-fold affinity decrease, not reliably determined, ITC: Tris 50 mM, pH 7, 20 °C (also 15 and 17.5 °C; Pipes or phosphate 50 mM, pH 7), no added NaCl unless stated, protein 3-5 uM in cell, dsDNA 50 uM titrant, recombinant protein, protein details: His-tag removed (PreScission)

GCCATGCCCTGGAACGGAACTCTCCTAATAAAAGATGTATCATTT (double strand) [BDNF promoter IV 45 bp mCpG]
binding result (5-methylcytosine at C15 of strand 1 and C30 of strand 2 (symmetric mCpG)): binds more weakly

GCCATGCCCTGGAACGGAACTCTCCTAATAAAAGATGTATCATTT (double strand) [BDNF promoter IV 45 bp unmethylated]
binding result: binds more weakly
